Experimental data: PubChem BioAssay AID1508597 (Cure First, 2020)
This is a random part of about 2,100 reagents. 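Calls flag viability under 80% in either arm, not effects specific to rucaparib; the reference for percent is not stated.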 Entries without a mark were called inactive. A reagent listed more than once was tested more than once; the source does not tell the runs apart. The record does not give: the 100% reference.

- Screen: 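Survival screen with siRNA in ovarian cancer cells derived from patients, with or without rucaparib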 (primary screen)
- Cells: human ovarian carcinoma lines grown from tumours: OCI-P5x (papillary serous) and OCI-C5x (clear cell)
- Reagents: siRNA pool against human genes, 1.25 pmol siRNA per well
- Timing: 72 h or 96 h, depending on the cell culture
- Treatment: rucaparib 20 µM (about IC30) or vehicle, present until read-out
- Detection: 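Luminescent ATP-based viability assay read 72 or 96 h after transfection, depending on culture, given as normalised percent viability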
- Reading the numbers: viability, normalised: higher = more viable cells remaining
- Rule for the call: 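Active when normalised viability falls below 80 percent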
- Calls: active = viability under 80%; inactive = viability 80% or more

viability, normalised (%)	target	rucaparib or vehicle	cell line	technical replicate
38.9 (active)	DHX40	Rucaparib	OCI-C5x (clear cell)	1
32.9 (active)	DHX40	Rucaparib	OCI-C5x (clear cell)	2
30.7 (active)	DHX40	Rucaparib	OCI-C5x (clear cell)	3
43.3 (active)	DHX40	Rucaparib	OCI-P5x (serous)	1
44.3 (active)	DHX40	Rucaparib	OCI-P5x (serous)	2
41.4 (active)	DHX40	Rucaparib	OCI-P5x (serous)	3
39.2 (active)	DHX40	Vehicle	OCI-C5x (clear cell)	1
49.9 (active)	DHX40	Vehicle	OCI-C5x (clear cell)	2
40.2 (active)	DHX40	Vehicle	OCI-C5x (clear cell)	3
38.6 (active)	DHX40	Vehicle	OCI-P5x (serous)	1
44.5 (active)	DHX40	Vehicle	OCI-P5x (serous)	2
44.7 (active)	DHX40	Vehicle	OCI-P5x (serous)	3
58.3 (active)	DGKI	Rucaparib	OCI-C5x (clear cell)	1
50.7 (active)	DGKI	Rucaparib	OCI-C5x (clear cell)	2
43.8 (active)	DGKI	Rucaparib	OCI-C5x (clear cell)	3
84.2	DGKI	Rucaparib	OCI-P5x (serous)	1
64 (active)	DGKI	Rucaparib	OCI-P5x (serous)	2
59.6 (active)	DGKI	Rucaparib	OCI-P5x (serous)	3
57.7 (active)	DGKI	Vehicle	OCI-C5x (clear cell)	1
45.1 (active)	DGKI	Vehicle	OCI-C5x (clear cell)	2
61.1 (active)	DGKI	Vehicle	OCI-C5x (clear cell)	3
69 (active)	DGKI	Vehicle	OCI-P5x (serous)	1
55.7 (active)	DGKI	Vehicle	OCI-P5x (serous)	2
62.7 (active)	DGKI	Vehicle	OCI-P5x (serous)	3
40 (active)	CTPS1	Rucaparib	OCI-C5x (clear cell)	1
36.4 (active)	CTPS1	Rucaparib	OCI-C5x (clear cell)	2
42.1 (active)	CTPS1	Rucaparib	OCI-C5x (clear cell)	3
44.6 (active)	CTPS1	Rucaparib	OCI-P5x (serous)	1
43.3 (active)	CTPS1	Rucaparib	OCI-P5x (serous)	2
59 (active)	CTPS1	Rucaparib	OCI-P5x (serous)	3
42.7 (active)	CTPS1	Vehicle	OCI-C5x (clear cell)	1
33.4 (active)	CTPS1	Vehicle	OCI-C5x (clear cell)	2
37.2 (active)	CTPS1	Vehicle	OCI-C5x (clear cell)	3
70.2 (active)	CTPS1	Vehicle	OCI-P5x (serous)	1
56.1 (active)	CTPS1	Vehicle	OCI-P5x (serous)	2
69.1 (active)	CTPS1	Vehicle	OCI-P5x (serous)	3
51.6 (active)	FGFR4	Rucaparib	OCI-C5x (clear cell)	1
62.2 (active)	FGFR4	Rucaparib	OCI-C5x (clear cell)	2
57.9 (active)	FGFR4	Rucaparib	OCI-C5x (clear cell)	3
93.5	FGFR4	Rucaparib	OCI-P5x (serous)	1
101	FGFR4	Rucaparib	OCI-P5x (serous)	2
75.5 (active)	FGFR4	Rucaparib	OCI-P5x (serous)	3
64.9 (active)	FGFR4	Vehicle	OCI-C5x (clear cell)	1
60.7 (active)	FGFR4	Vehicle	OCI-C5x (clear cell)	2
65.5 (active)	FGFR4	Vehicle	OCI-C5x (clear cell)	3
84.3	FGFR4	Vehicle	OCI-P5x (serous)	1
72.1 (active)	FGFR4	Vehicle	OCI-P5x (serous)	2
86.8	FGFR4	Vehicle	OCI-P5x (serous)	3

Not a retest: entries from further up.
viability, normalised (%)	target	rucaparib or vehicle	cell line	technical replicate
40 (active)	CTPS1	Rucaparib	OCI-C5x (clear cell)	1
36.4 (active)	CTPS1	Rucaparib	OCI-C5x (clear cell)	2
42.1 (active)	CTPS1	Rucaparib	OCI-C5x (clear cell)	3
44.6 (active)	CTPS1	Rucaparib	OCI-P5x (serous)	1
43.3 (active)	CTPS1	Rucaparib	OCI-P5x (serous)	2
59 (active)	CTPS1	Rucaparib	OCI-P5x (serous)	3
42.7 (active)	CTPS1	Vehicle	OCI-C5x (clear cell)	1
33.4 (active)	CTPS1	Vehicle	OCI-C5x (clear cell)	2
37.2 (active)	CTPS1	Vehicle	OCI-C5x (clear cell)	3
70.2 (active)	CTPS1	Vehicle	OCI-P5x (serous)	1
56.1 (active)	CTPS1	Vehicle	OCI-P5x (serous)	2
69.1 (active)	CTPS1	Vehicle	OCI-P5x (serous)	3
51.6 (active)	FGFR4	Rucaparib	OCI-C5x (clear cell)	1
62.2 (active)	FGFR4	Rucaparib	OCI-C5x (clear cell)	2

Next results:
viability, normalised (%)	target	rucaparib or vehicle	cell line	technical replicate
57.3 (active)	EPHA3	Rucaparib	OCI-C5x (clear cell)	1
59.2 (active)	EPHA3	Rucaparib	OCI-C5x (clear cell)	2
57.9 (active)	EPHA3	Rucaparib	OCI-C5x (clear cell)	3
79 (active)	EPHA3	Rucaparib	OCI-P5x (serous)	1
66.4 (active)	EPHA3	Rucaparib	OCI-P5x (serous)	2
76.3 (active)	EPHA3	Rucaparib	OCI-P5x (serous)	3
61.7 (active)	EPHA3	Vehicle	OCI-C5x (clear cell)	1
58.6 (active)	EPHA3	Vehicle	OCI-C5x (clear cell)	2
41.4 (active)	EPHA3	Vehicle	OCI-C5x (clear cell)	3
80.5	EPHA3	Vehicle	OCI-P5x (serous)	1
59.2 (active)	EPHA3	Vehicle	OCI-P5x (serous)	2
61.2 (active)	EPHA3	Vehicle	OCI-P5x (serous)	3
50.8 (active)	KMT2E	Rucaparib	OCI-C5x (clear cell)	1
45.5 (active)	KMT2E	Rucaparib	OCI-C5x (clear cell)	2
37.8 (active)	KMT2E	Rucaparib	OCI-C5x (clear cell)	3
66.3 (active)	KMT2E	Rucaparib	OCI-P5x (serous)	1
54.1 (active)	KMT2E	Rucaparib	OCI-P5x (serous)	2
70.8 (active)	KMT2E	Rucaparib	OCI-P5x (serous)	3
56.4 (active)	KMT2E	Vehicle	OCI-C5x (clear cell)	1
65.8 (active)	KMT2E	Vehicle	OCI-C5x (clear cell)	2
68.5 (active)	KMT2E	Vehicle	OCI-C5x (clear cell)	3
68.3 (active)	KMT2E	Vehicle	OCI-P5x (serous)	1
89.7	KMT2E	Vehicle	OCI-P5x (serous)	2
85.2	KMT2E	Vehicle	OCI-P5x (serous)	3
63.8 (active)	SMARCAL1	Rucaparib	OCI-C5x (clear cell)	1
43.6 (active)	SMARCAL1	Rucaparib	OCI-C5x (clear cell)	1
34.1 (active)	SMARCAL1	Rucaparib	OCI-C5x (clear cell)	2
70.1 (active)	SMARCAL1	Rucaparib	OCI-C5x (clear cell)	2
54.2 (active)	SMARCAL1	Rucaparib	OCI-C5x (clear cell)	3
43.3 (active)	SMARCAL1	Rucaparib	OCI-C5x (clear cell)	3
84.7	SMARCAL1	Rucaparib	OCI-P5x (serous)	1
55.5 (active)	SMARCAL1	Rucaparib	OCI-P5x (serous)	1
48.8 (active)	SMARCAL1	Rucaparib	OCI-P5x (serous)	2
99.8	SMARCAL1	Rucaparib	OCI-P5x (serous)	2
47.5 (active)	SMARCAL1	Rucaparib	OCI-P5x (serous)	3
82.8	SMARCAL1	Rucaparib	OCI-P5x (serous)	3
37.8 (active)	SMARCAL1	Vehicle	OCI-C5x (clear cell)	1
34.6 (active)	SMARCAL1	Vehicle	OCI-C5x (clear cell)	1
45.4 (active)	SMARCAL1	Vehicle	OCI-C5x (clear cell)	2
31.1 (active)	SMARCAL1	Vehicle	OCI-C5x (clear cell)	2
44.1 (active)	SMARCAL1	Vehicle	OCI-C5x (clear cell)	3
42.2 (active)	SMARCAL1	Vehicle	OCI-C5x (clear cell)	3
52 (active)	SMARCAL1	Vehicle	OCI-P5x (serous)	1
65.6 (active)	SMARCAL1	Vehicle	OCI-P5x (serous)	1
83.4	SMARCAL1	Vehicle	OCI-P5x (serous)	2
49.3 (active)	SMARCAL1	Vehicle	OCI-P5x (serous)	2
77.3 (active)	SMARCAL1	Vehicle	OCI-P5x (serous)	3
62 (active)	SMARCAL1	Vehicle	OCI-P5x (serous)	3
